Laboratory results: publication PMC7046344
Results are given in words; binding and its absence hold for the method and conditions named. In cells and extracts the contact can be indirect. Binding can be weak; no strength is given. Tags and fused reporters may be left off the sequences shown.

Sequences of proteins named here, by UniProt entry; tags and fusion partners are left off. A change or cut given only in a name is not applied to a line headed by its entry.
UniProt Q9V9Y9: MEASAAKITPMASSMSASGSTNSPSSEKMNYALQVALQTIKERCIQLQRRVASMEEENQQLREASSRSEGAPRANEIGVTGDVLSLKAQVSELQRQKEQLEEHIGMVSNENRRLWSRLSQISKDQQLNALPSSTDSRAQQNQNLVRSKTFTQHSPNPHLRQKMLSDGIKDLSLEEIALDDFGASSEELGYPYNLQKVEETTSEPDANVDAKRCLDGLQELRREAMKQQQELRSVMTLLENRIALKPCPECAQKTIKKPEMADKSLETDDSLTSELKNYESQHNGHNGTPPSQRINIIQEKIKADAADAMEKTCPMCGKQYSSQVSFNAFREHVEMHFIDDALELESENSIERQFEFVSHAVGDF

Target: T1, FLAG-Rab11-DN (Drosophila) (UniProt O18335)
T1 sequence: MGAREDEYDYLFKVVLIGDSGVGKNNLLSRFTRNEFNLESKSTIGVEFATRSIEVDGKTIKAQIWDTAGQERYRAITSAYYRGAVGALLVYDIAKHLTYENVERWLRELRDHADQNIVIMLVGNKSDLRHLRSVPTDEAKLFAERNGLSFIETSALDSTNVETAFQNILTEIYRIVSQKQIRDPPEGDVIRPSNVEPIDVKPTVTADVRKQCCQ
Experiment: co-IP; lysates of co-transfected S2 cells (20 mM Tris pH 7.0, 150 mM NaCl, 2 mM EDTA, 1% TritonX-100, 1 mM DTT) incubated with anti-FLAG M2 agarose beads on ice, washed with lysis buffer; immunoblot

| binding | Substance |
| --- | --- |
| no binding | SpnF-ΔSCD-myc (from UniProt Q9V9Y9) |
| binds | SpnF-ΔCC3-myc (from UniProt Q9V9Y9) |
